# Measured values: PMC6296734, “The CbrB Regulon: Promoter dissection reveals novel insights into the CbrAB expression network in Pseudomonas putida”
# Experiments:
# [1] = target: T1, CbrB (UniProt A0ABM7EKZ2); experiment: DNase I footprinting; conditions: CbrB 0-4.9 uM, altered pattern -210 to -270; crcZ/crcY (5 nM): 35 mM Tris-acetate pH 7.9, 70 mM KAc, 20 mM NH4Ac, 2 mM MgAc2, 1 mM CaCl2, 1 mM DTT, 5% glycerol; others (1.5 nM) and footprint: 50 mM Tris-HCl pH 7.4; recombinant protein; protein details: N-terminal His tag (pET-14b derived pMPO1229); label: 32P-dCTP Klenow fill-in, top strand; probe letters rebuilt from the primers and the genome
# T1 sequence (looked up, limits assumed): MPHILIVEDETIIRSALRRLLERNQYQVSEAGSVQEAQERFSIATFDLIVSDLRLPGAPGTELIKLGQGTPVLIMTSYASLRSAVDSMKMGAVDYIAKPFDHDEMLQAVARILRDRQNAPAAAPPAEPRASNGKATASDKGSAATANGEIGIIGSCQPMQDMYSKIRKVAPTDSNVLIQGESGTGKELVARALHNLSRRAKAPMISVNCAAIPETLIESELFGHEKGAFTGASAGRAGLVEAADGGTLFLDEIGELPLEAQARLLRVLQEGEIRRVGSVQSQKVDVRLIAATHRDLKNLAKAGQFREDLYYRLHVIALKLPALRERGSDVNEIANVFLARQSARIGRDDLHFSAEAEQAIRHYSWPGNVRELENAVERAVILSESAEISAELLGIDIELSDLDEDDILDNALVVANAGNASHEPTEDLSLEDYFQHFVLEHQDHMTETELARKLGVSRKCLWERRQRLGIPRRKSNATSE
# [2] = target: T1, CbrB; experiment: EMSA; conditions: EMSA at room temperature, recombinant protein, protein details: N-terminal His tag (pET-14b derived pMPO1229), label: 32P-dCTP Klenow fill-in, probe letters rebuilt from the primers and the genome
# [3] = target: T2, CbrB (UniProt A0ABM7EKZ2); experiment: EMSA; conditions: slightly reduced; EMSA at room temperature; recombinant protein; protein details: N-terminal His tag (pET-14b derived pMPO1229); label: 32P-dATP Klenow fill-in
# T2 sequence (looked up, limits assumed): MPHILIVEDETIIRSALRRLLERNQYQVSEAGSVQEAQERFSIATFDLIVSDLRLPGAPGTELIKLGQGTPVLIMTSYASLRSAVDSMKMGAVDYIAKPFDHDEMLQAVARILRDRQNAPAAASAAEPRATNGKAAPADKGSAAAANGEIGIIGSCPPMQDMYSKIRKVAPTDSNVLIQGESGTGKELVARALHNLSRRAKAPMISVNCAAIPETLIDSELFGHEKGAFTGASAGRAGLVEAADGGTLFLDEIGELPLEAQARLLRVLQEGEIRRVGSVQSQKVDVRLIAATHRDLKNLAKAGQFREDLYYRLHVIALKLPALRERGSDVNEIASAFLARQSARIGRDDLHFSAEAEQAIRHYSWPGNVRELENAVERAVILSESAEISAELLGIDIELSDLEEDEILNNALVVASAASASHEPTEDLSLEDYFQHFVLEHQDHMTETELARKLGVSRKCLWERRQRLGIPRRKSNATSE
sequence,measurement,setting,value
"GGGAAAGCCTGCTTTTTTACCGCCCCTAGGGGCGGTTTTTTTATGGGTGAATCATTCGCGTCAGTCATGGGCCTGGATAAGCGAAAAATAGTTAGGGTTCAGTGTGGCAGTGGTAGACCTTTAGGTGGCGCACTATTAAAAGGCATCTTTTGGTAACACATGTTTCCTTACTTCCCAATAATGTGCAGGCGCCAGGCACGCATTAGTCGATAAATAAATTCAACTCGCTGATTTCTCTAGCGTAATCCGCCTATCTAG (double strand) [PPP2810 footprint fragment, top strand]",binding result,[1],binds
GGGAGCGACATGATCAACTGACCATGTCATGTGATCAACACGCAAGCCACATGCCAGAATGCGTCATAGGCGGATTACGCTAGAGAAATCAGCGAGTTGAATTTATTTATCGACTAATGCGTGCCTGGCGCCTGCACGCCGCCGGGAAGTAAGGAAACATGTGTTACCAAAAGATGCCTTTTAATAGTGCGCCACCTAAAGGTCTACCACTGCCACACTGAACCCTAACTATTTTTCGCTTATCCAGGCCCATGACTGACGCGAATGATTCACCCATTCTAG (double strand) [PPP2810 R2 mutant],binding result,[2]; no obvious alteration,binds
GGGAGCGACATGATCAACTGACCATGTCATGTGATCAACACGCAAGCCACATGCCAGAATGCGTCATAGGCGGATTACGCTAGAGAAATCAGCGAGTTGAATTTATTTATCGACTAATGCGTGCCTGGCGCCTGCACATTATTGGGAAGTAAGGAAACATGTGTTACCAAAAGATGCCTTCGCCGCGTGCGCCACCTAAAGGTCTACCACTGCCACACTGAACCCTAACTATTTTTCGCTTATCCAGGCCCATGACTGACGCGAATGATTCACCCATTCTAG (double strand) [PPP2810 F1 mutant],binding result,[2]; no obvious alteration,binds
GGGGAATTCACGCAAGGGTACGGGCCGTCCGCTGGCGGGCGCATTGGCCTTGTCGGGCACTTCGTCTTCCAGCATCTGCATCGCGTGGTTCCCGCGCAGGGCGTACGTTCAGAACTGCATCAAGGCCAATGGCAGCAGCCACTGGGTAGCAATCCACCTGGGCAGTCGCAGCTGCCATTTGTCGCGTGTCGCGCTTCACAAACTTCGCTGCAAAAACTTGGCCAGCAGAAACATTCCAAATTAAAAATGTTATTTTTCAGTAGGTTGCCATAACTTATTAAGATTAATTAGAGGATTAACCCCCACATTTGGGGGATTATCACCCAAAAAACACAAATCCTTTTCATATCAACATCTTACTGAACAATCCTGATGTCATTTAACGAATTCACGCCAGTCGGAAACTTAACGAAACCCTTGTGCCATGGCCTTCACTGCTGCTGAGCCGGACCGTACCGCCGAAACGTTCCATGATGTCTAG (double strand) [PP3420 promoter],binding result,"[2]; CbrB 0-2 uM, lowest affinity of the shifted promoters",binds
TTGTGTGGGTGAAGTGTTACCTCCCGCACATTTCTGCGACAAAAATCGGGTAACAGGGAAACAAATCGGCAGAA / TTTTCTGCCGATTTGTTTCCCTGTTACCCGATTTTTGTCGCAGAAATGTGCGGGAGGTAACACTTCACCCACAC [PcrcY R1 mutant],binding result,[3],binds more weakly
GGGTTCCATGTCGCAAATCACGCCCCGGTTCAGGGGCCGTATAACCTCAGCGCTATTCCTGTCACCGTAACGAATCTGTAACTGCTGATTCCGGTTGAGGAAACTCCCTGGTAACCCATGTCGCTGTTGTTATTTGTCGCGTACACCTGTCACTGCAGATGTCGTGCCGACTTGGCGTGAAGGGAATGCAACAAGCGTGCTCAAAATTCGCAACAGTTCATGAAATTTTCACAAAACCTGCTACCGAGGGTCGGAAAGTCCCGTAAACGCGGGGCGAAGGCTGCTTGTGTGATTTGTGCGATCGAGAATCATTAAAAATTATAAAGTTGCCCTTAGAGTCAAAGTGTTACCGCGACTTGTTCATCCAGCGTCGTTTGTGGGGTGGTCAGTGTGGGAGGGGCGGGCAGGTGGCCTCATTTTGGTGCGAAAAGTAGCGCTGTGTTACCGGGAGTGTGCAAGGTATCCTTGCTGCCCTGTTTTCCGCCTGAAGCGTCTAG (double strand) [PP1206 (oprD) promoter],binding result,[2]; CbrB 0-2 uM,binds
GGGAGCGACATGATCAACTGACCATGTCATGTGATCAACACGCAAGCCACATGCCAGAATGCGTCATAGGCGGATTACGCTAGAGAAATCAGCGAGTTGAATTTATTTATCGACTAATGCGTGCCTGGCGCCTGCACATTATTGGGAAGTAAGGAAACATGGAGGCTCAAAAGATGCCTTTTAATAGTGCGCCACCTAAAGGTCTACCACTGCCACACTGAACCCTAACTATTTTTCGCTTATCCAGGCCCATGACTGACGCGAATGATTCACCCATTCTAG (double strand) [PPP2810 R1 mutant],binding result,[2],no binding
GGGAGCGACATGATCAACTGACCATGTCATGTGATCAACACGCAAGCCACATGCCAGAATGCGTCATAGGCGGATTACGCTAGAGAAATCAGCGAGTTGAATTTATTTATCGACTAATGCGTGCCTGGCGCCTGCACATTATTGGGAAGTAAGGAAACATGTGTTACCAAAAGATGCCTTTTAATAGTGCGCCACCTAAAGGTCTACCACTGCCACACTGAACCCTAACTATTTTTCGCTTATCCAGGCCCATGACTGACGCGAATGATTCACCCATTCTAG (double strand) [PPP2810 wt],binding result,"[2]; CbrB 0-2 uM, affinity lower than crcZ and crcY",binds

# For at least one entry, the source does not settle the construct or the ends of the probe. For some assays here: A negative result means that nothing was seen under these conditions. Tags and fusion partners may be left off the protein sequences shown. For some assays here: A weaker result is weaker than the reference pair of the same experiment.
